## Primary screen of a compound library

Mtb cholesterol medium: 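Phenotypic screen: M. tuberculosis growth, cholesterol and DPPC medium, 4 days; the read-out is not stated. Concentration: 50 µM. The record gives no direction; compounds that gave an IC50 in retests scored well above the rest, so higher reads as more growth inhibition. Of about 69,000 compounds tested this way, about 370 (0.54%) reached 50% or more in at least one test.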
Mtb glucose medium: 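Phenotypic screen: M. tuberculosis growth, glucose 7H9 medium, 3 days; the read-out is not stated. Concentration: 50 µM. Direction is inferred from retests: higher values go with more growth inhibition. Size under these conditions: about 69,000 compounds, about 760 of them at 50% or above in at least one test.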

Results are given as percent effect.
How 0% and 100% were set is not recorded. Most values in the screen are low, and negative values occur.
This is an unselected part of the compounds tested.
Two or more numbers in one place are separate tests of the same structure; such repeats can differ widely.

COCc1nc(C(=O)NS(=O)(=O)c2cc(Br)ccc2C)cs1 gave Mtb cholesterol medium: -1.793%; Mtb glucose medium: -10.26%.
COc1ccc(C)cc1C(C)NCc1cnnn1C (stereo not shown) gave Mtb cholesterol medium: 10.71%; Mtb glucose medium: -6.963%.
COCCc1noc(CN2CCCC(Cn3nc(C)nc3C)C2)n1 (stereo not shown) gave Mtb cholesterol medium: -5.454%; Mtb glucose medium: 15.85%.
CCN(Cc1nc(C)no1)C(=O)C1CC(=O)N(Cc2cccnc2)C1 (stereo not shown) gave Mtb cholesterol medium: -14.2%; Mtb glucose medium: 20.77%.
CN1CCC(NC(=O)CCCc2cc(Cl)sc2Cl)C1=O (stereo not shown) gave Mtb cholesterol medium: 2.483%; Mtb glucose medium: 19.61% & -14.46%.
[H][C@@]12CC(=O)N(Cc3csc(C)n3)[C@@]1([H])CCN2C(=O)C1CCOCC1 gave Mtb cholesterol medium: -18.05%; Mtb glucose medium: 5.799%.
O=C(O)C(F)(F)F.[H][C@@]12COC[C@@H](C(=O)N3CCCCO3)[C@]1([H])CN(c1ccncn1)C2 gave Mtb cholesterol medium: -7.364%; Mtb glucose medium: -11.59% & 3.003%.
COc1ccc2c(c1)CC(NCc1cccc(NC(C)=O)c1)CC2 (stereo not shown) gave Mtb cholesterol medium: 5.341%; Mtb glucose medium: -5.729%.
CN(CCC(O)c1ccccc1)Cc1ccccc1C#N (stereo not shown) gave Mtb cholesterol medium: 4.455%; Mtb glucose medium: 10.55%.
C1CN(c2nc(C3CC3)ns2)CCS1 gave Mtb cholesterol medium: -3.377% & 6.658%; Mtb glucose medium: -30.23%.
Cc1cc(C)nc(NC2CCCN(CCCc3ccccc3)C2)n1 (stereo not shown) gave Mtb cholesterol medium: -67.96% & -2.251%; Mtb glucose medium: -33.12%.
CCC(=O)NCC(=O)NCc1cc(Br)ccc1OC(F)F gave Mtb cholesterol medium: -0.264%; Mtb glucose medium: 20.03%.
CCOc1ccccc1C(CC(=O)Nc1nc(C)cs1)NC(C)=O (stereo not shown) gave Mtb cholesterol medium: -7.976%; Mtb glucose medium: -31.56%.
[H][C@]12CC[C@]([H])(CN(C(=O)CSCCC)C1)N(Cc1ccccn1)C2=O gave Mtb cholesterol medium: -18.72%; Mtb glucose medium: -4.244% & -16.46%.
Cc1nn(CC(=O)N2CCC3(CN(C)C(=O)O3)C2)c(=O)c2ccccc12 (stereo not shown) gave Mtb cholesterol medium: -16.73%; Mtb glucose medium: -27.6%.
[H][C@@]12CCN(C[C@@H]1CC)[C@@H](CNC(=O)NC1CCCCC1)C2 gave Mtb cholesterol medium: 7.257%; Mtb glucose medium: 2.132% & -50.1%.
CCOCc1cccc(S(=O)(=O)Nc2ncc(C)s2)c1 gave Mtb cholesterol medium: -6.496%; Mtb glucose medium: -7.027% & -4.649%.
COc1c(F)cc(F)cc1-c1nc2c([nH]1)CCNC2 gave Mtb cholesterol medium: -18.25%; Mtb glucose medium: -49.64%.
CCCn1cc(CN2CCC(c3[nH]ncc3S(C)(=O)=O)C2)cn1 (stereo not shown) gave Mtb cholesterol medium: -6.653%; Mtb glucose medium: 8.245%.
CCn1cnnc1CNC(=O)N1CCOC(c2ccccc2Cl)C1 (stereo not shown) gave Mtb cholesterol medium: 10.24%; Mtb glucose medium: 9.096% & 3.385%.
COCCN1CCC(CN(C)c2nc3c(s2)c(C)nn3C)C1 (stereo not shown) gave Mtb cholesterol medium: -5.777%; Mtb glucose medium: 27.75%.
O=C(CN1C(=O)CC2(CCCC2)C1=O)NCCc1nccs1 gave Mtb cholesterol medium: 14.85%; Mtb glucose medium: 26.72%.
CCC1(CO)CCCN(C(=O)c2cc(COc3ccccc3F)[nH]n2)C1 (stereo not shown) gave Mtb cholesterol medium: -22.99% & -10.81%; Mtb glucose medium: -19.36%.
CCCS(=O)(=O)NC(=O)c1ccc(CC)o1 gave Mtb cholesterol medium: -1.362%; Mtb glucose medium: 4.542% & -5.476%.
CC(C)Oc1ccc(CN2CCCC(N3CCOCC3)C2)cc1CO (stereo not shown) gave Mtb cholesterol medium: -14.34%; Mtb glucose medium: -5.498% & 1.078%.
Cn1ncc2c1NC(=O)CC2c1cc(Cl)ccc1F (stereo not shown) gave Mtb cholesterol medium: -13.11%; Mtb glucose medium: 18.37%.
O=C(CC1CC1)N1CCC2(CC1)CN(c1ccsc1)C(=O)CO2 gave Mtb cholesterol medium: 1.741% & -8.883%; Mtb glucose medium: -29.74%.
O=C(N[C@H]1CCCC[C@@H]1O)c1ccc2nc(-c3ccccc3)[nH]c2c1 gave Mtb cholesterol medium: -13.69%; Mtb glucose medium: 6.989%.
CCCn1[nH]cc/c1=N\C(=O)CN1CCCC1c1c(C)nn(C)c1C (stereo not shown) gave Mtb cholesterol medium: -11.69%; Mtb glucose medium: 20.95%.
O=C1CCC2(CCCN(C(=O)NCc3ccccc3)CC2)N1 (stereo not shown) gave Mtb cholesterol medium: 7.315%; Mtb glucose medium: -11.36%.
O=C(c1ccc(-n2ccnn2)cc1)N(CC1CC1)c1cccnc1 gave Mtb cholesterol medium: -4.456%; Mtb glucose medium: 3.553% & -5.272%.
CC(C)C1CN(C(=O)c2cc(=O)[nH]c(=O)[nH]2)CCCN1CC1CC1 (stereo not shown) gave Mtb cholesterol medium: -29.32%; Mtb glucose medium: -16.7%.
COc1ccc(CCN2CCCC2Cn2nc(C)nc2C)cc1 (stereo not shown) gave Mtb cholesterol medium: -9.028%; Mtb glucose medium: -52.78%.
Cc1cc(C2CCCN(Cc3ncc(C)o3)C2)n[nH]1 (stereo not shown) gave Mtb cholesterol medium: -5.992% & 14.02%; Mtb glucose medium: -2.901%.
O=C(O)C(F)(F)F.O=C(c1ccccn1)N1CCC2(CC1)COC(COCC1CC1)C2 (stereo not shown) gave Mtb cholesterol medium: -4.219%; Mtb glucose medium: -17.89%.
COc1ccc(-c2c[nH]c([C@@H]3COCCN3)n2)cc1 gave Mtb cholesterol medium: -12.32%; Mtb glucose medium: -4.237% & -5.843%.
CCS(=O)(=O)N1Cc2nnn(C)c2C(COCCN(C)C)C1.O=C(O)C(F)(F)F (stereo not shown) gave Mtb cholesterol medium: 14.67%; Mtb glucose medium: 5.814% & -1.85%.
CC(C)NC(=O)c1cc2c(nc1N(C)C)CCN(S(=O)(=O)C1CC1)CC2 gave Mtb cholesterol medium: -6.51%; Mtb glucose medium: 22.57% & -0.05051%.
O=C(CCN1CCCC1c1ccccn1)N1CCc2ccccc2C1 (stereo not shown) gave Mtb cholesterol medium: 13.17%; Mtb glucose medium: 1.57%.
Cc1ncsc1CN(C)C(=O)CC1CCOc2ccccc21 (stereo not shown) gave Mtb cholesterol medium: -14.64%; Mtb glucose medium: -2.516%.
Cc1cc(NC(=O)CN2CCc3c(nc(C(C)C)n3C)C2)n(C)n1 gave Mtb cholesterol medium: 13.37%; Mtb glucose medium: -2.798% & 2.91%.

Some entries from above, unchanged:

{"structure": "[H][C@@]12CC(=O)N(Cc3csc(C)n3)[C@@]1([H])CCN2C(=O)C1CCOCC1", "Mtb cholesterol medium": -18.05, "Mtb glucose medium": 5.799}
{"structure": "CCC(=O)NCC(=O)NCc1cc(Br)ccc1OC(F)F", "Mtb cholesterol medium": -0.264, "Mtb glucose medium": 20.03}
{"structure": "CCN(Cc1nc(C)no1)C(=O)C1CC(=O)N(Cc2cccnc2)C1", "stereo": "stereo not shown", "Mtb cholesterol medium": -14.2, "Mtb glucose medium": 20.77}
{"structure": "O=C(O)C(F)(F)F.O=C(c1ccccn1)N1CCC2(CC1)COC(COCC1CC1)C2", "stereo": "stereo not shown", "Mtb cholesterol medium": -4.219, "Mtb glucose medium": -17.89}

Measurements from “University of Dundee, Small-Polar-MMV Screening Library” (2021), ChEMBL document CHEMBL3988442.